From publication doi:10.1101/2022.01.13.476189 come the findings set out here.

Sequences of proteins named here, by UniProt entry; tags and fusion partners are left off. A change or cut given only in a name is not applied to a line headed by its entry.
UniProt P07213: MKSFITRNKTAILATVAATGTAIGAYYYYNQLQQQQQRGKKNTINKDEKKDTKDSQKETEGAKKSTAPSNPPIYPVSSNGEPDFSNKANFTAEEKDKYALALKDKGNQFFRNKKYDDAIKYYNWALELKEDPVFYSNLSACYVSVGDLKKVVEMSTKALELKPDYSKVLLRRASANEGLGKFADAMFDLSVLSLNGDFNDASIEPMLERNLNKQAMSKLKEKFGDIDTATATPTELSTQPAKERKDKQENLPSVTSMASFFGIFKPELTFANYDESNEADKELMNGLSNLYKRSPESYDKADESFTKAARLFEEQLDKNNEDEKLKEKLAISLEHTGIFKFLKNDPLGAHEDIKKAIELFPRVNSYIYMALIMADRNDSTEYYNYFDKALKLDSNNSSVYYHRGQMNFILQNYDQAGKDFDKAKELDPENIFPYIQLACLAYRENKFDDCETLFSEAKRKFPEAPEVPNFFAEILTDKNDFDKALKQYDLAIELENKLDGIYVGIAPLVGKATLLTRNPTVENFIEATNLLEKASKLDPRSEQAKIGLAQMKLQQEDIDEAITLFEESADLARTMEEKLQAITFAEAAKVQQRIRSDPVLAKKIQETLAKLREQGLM
UniProt Q9BXM7: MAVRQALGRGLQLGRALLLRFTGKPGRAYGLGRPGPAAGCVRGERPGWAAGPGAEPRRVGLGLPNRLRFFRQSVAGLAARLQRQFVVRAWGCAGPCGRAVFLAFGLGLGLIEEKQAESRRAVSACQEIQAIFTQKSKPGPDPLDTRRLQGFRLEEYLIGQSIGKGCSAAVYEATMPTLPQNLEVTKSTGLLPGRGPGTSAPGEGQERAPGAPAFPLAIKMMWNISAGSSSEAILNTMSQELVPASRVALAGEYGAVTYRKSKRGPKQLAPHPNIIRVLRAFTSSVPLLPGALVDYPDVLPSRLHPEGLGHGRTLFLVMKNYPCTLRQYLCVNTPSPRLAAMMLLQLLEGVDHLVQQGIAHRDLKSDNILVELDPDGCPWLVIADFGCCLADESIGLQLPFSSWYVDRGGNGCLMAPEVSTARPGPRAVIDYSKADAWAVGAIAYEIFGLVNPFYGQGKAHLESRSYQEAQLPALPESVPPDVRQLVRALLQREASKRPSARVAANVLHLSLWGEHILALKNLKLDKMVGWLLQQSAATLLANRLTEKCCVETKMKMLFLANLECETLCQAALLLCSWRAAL

The assay has as its target GST-Tom70 (cytosolic domain) (yeast) (UniProt P07213). Briefly: pull-down.

These are yes or no findings as the source states them, for the method shown. In cells and extracts the contact can be indirect. A result given as binding can be weak or reduced; the word gives no strength.

Regarding “PINK1(35-120)-eGFP, radiolabeled (from UniProt Q9BXM7 35-120) (domain or fragment)”, the binding entry was “binds”.

As for “PINK1(1-120)-eGFP, radiolabeled (from UniProt Q9BXM7 1-120) (domain or fragment)”, the binding result is listed as “binds”.

Turning to “PINK1 (human), radiolabeled (from UniProt Q9BXM7 1-581)”, the binding result is “binds”.
